Data published in the supplement of paper PMC6411743.
± gives the standard deviation of the averaged measurements. Some of the results follow.

Chains of the proteins cited; added tags and fusions are not shown. Lines headed by an entry give the natural chain unless they say otherwise; changes in a name come on top.
UniProt Q6PI26: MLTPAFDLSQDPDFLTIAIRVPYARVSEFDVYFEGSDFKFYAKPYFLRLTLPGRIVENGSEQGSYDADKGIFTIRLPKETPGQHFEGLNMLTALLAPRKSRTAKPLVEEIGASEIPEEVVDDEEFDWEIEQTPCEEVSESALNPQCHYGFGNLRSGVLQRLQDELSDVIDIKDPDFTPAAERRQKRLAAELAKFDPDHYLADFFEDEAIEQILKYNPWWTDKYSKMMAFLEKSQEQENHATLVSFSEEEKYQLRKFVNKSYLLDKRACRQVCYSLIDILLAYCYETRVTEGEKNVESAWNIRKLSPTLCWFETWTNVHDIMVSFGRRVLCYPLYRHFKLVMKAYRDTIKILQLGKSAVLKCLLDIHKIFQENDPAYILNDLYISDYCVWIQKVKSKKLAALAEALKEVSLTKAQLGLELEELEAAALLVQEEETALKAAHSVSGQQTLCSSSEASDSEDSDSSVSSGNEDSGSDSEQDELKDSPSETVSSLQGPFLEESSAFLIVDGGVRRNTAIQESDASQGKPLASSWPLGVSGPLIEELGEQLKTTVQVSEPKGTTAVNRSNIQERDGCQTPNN
UniProt Q6P3S1: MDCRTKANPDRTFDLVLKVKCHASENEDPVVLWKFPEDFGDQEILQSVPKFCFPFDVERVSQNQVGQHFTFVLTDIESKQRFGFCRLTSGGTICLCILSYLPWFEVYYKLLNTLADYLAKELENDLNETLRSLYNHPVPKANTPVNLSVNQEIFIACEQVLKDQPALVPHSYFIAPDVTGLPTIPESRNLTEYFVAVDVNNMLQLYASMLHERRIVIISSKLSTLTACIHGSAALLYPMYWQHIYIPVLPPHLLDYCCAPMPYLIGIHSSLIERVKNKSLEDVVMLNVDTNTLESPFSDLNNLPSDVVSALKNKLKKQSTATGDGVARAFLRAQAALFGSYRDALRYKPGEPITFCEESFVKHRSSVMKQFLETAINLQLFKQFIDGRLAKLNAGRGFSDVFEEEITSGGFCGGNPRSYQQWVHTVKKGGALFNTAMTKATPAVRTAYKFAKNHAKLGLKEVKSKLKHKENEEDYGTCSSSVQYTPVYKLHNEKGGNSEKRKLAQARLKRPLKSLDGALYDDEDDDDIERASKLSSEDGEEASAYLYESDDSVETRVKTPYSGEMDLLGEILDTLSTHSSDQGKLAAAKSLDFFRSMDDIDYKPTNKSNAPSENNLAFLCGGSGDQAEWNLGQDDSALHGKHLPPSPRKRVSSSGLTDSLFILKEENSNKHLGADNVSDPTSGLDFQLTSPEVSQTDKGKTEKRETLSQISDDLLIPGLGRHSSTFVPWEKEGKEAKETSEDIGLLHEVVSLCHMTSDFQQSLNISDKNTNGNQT
UniProt Q6NUQ4: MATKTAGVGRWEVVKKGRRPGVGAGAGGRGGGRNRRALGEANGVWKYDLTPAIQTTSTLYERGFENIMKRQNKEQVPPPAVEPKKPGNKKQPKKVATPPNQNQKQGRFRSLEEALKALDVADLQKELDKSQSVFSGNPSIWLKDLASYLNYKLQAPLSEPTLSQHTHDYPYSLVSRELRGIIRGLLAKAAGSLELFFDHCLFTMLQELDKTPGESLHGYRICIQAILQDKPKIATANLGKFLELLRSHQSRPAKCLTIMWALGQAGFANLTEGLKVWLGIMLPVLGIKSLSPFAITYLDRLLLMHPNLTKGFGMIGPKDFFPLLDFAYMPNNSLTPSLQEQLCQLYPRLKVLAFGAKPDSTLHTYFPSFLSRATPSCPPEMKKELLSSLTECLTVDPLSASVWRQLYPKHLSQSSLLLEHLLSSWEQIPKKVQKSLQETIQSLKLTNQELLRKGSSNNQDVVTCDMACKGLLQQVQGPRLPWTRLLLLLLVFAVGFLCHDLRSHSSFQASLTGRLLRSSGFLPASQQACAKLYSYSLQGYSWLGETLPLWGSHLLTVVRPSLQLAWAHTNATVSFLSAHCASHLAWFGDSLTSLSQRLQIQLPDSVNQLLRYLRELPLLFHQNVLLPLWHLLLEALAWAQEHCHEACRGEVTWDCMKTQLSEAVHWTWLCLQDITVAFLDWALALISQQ
UniProt Q6DCA0: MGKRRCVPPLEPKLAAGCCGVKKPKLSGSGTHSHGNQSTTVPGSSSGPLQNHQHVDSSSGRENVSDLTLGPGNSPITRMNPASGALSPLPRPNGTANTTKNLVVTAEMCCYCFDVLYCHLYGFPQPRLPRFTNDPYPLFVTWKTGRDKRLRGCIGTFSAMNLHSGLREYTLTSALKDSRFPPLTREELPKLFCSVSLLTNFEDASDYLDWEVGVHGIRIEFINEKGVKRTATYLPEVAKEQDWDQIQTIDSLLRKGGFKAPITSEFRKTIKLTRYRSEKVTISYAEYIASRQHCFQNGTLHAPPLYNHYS

Compound: Nc1nc2c(ncn2[C@@H]2O[C@H](COP(=O)(O)OP(=O)(O)OP(=O)(O)O)[C@@H](O)[C@H]2O)c(=O)[nH]1 [guanosine triphosphate]
Experiment: NP40-soluble protein abundance relative to vehicle (solubility fold change) (ratio); higher = more soluble protein in presence of GTP
Procedure: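 Solubility proteome profiling in Jurkat crude lysate. Lysate was treated with Mg-GTP (0.1-10 mM) for 10 min at room temperature and 3 min at 37 °C, then solubilised with 0.8% NP40 and benzonase, followed by ultracentrifugation. Proteins were quantified by TMT10 LC-MS/MS; the value is the NP40-soluble abundance relative to the NP40-processed vehicle, from 3 independent experiments.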

| Target | NP40-soluble protein abundance (concentration: 0.1mM) | NP40-soluble protein abundance (concentration: 0.5mM) | NP40-soluble protein abundance (concentration: 1mM) | NP40-soluble protein abundance (concentration: 2mM) | NP40-soluble protein abundance (concentration: 4mM) | NP40-soluble protein abundance (concentration: 6mM) | NP40-soluble protein abundance (concentration: 8mM) | NP40-soluble protein abundance (concentration: 10mM) |
| --- | --- | --- | --- | --- | --- | --- | --- | --- |
| UniProt Q6PI26 and related entries | 1.03 ± 0.038 | 1.04 ± 0.082 | 1.08 ± 0.1 | 1.02 ± 0.092 | 1.03 ± 0.13 | 1 ± 0.051 | 1.04 ± 0.14 | 0.997 ± 0.067 |
| DENND1B (UniProt Q6P3S1) | 1.08 ± 0.11 | 1.1 ± 0.12 | 1.09 ± 0.13 | 1.01 ± 0.13 | 1.05 ± 0.17 | 1.05 ± 0.17 | 1.14 ± 0.11 | 1.05 ± 0.088 |
| UniProt Q6NUQ4 and related entries | 1 ± 0.034 | 0.991 ± 0.039 | 0.968 ± 0.05 | 0.978 ± 0.037 | 0.995 ± 0.031 | 0.987 ± 0.054 | 1.01 ± 0.069 | 1.03 ± 0.088 |
| SUPT6H (UniProt Q7KZ85) | 1.04 ± 0.014 | 1.05 ± 0.036 | 0.99 ± 0.023 | 0.976 ± 0.04 | 0.919 ± 0.029 | 0.886 ± 0.028 | 0.865 ± 0.037 | 0.856 ± 0.013 |
| AMMECR1L (UniProt Q6DCA0) | 1.14 ± 0.064 | 1.069 ± 0.0039 | 1.01 ± 0.018 | 0.985 ± 0.17 | 1.01 ± 0.024 | 1.03 ± 0.059 | 1.05 ± 0.11 | 1.02 ± 0.15 |
